Patent publication US20240342186A1, “PYRIDINE DERIVATIVES WITH N-LINKED CYCLIC SUBSTITUENTS AS cGAS INHIBITORS” (Boehringer Ingelheim International GmbH, priority 2021, published 2024)

The chains behind the UniProt entries cited, without tags or fusion partners.
UniProt Q8N884, whole entry: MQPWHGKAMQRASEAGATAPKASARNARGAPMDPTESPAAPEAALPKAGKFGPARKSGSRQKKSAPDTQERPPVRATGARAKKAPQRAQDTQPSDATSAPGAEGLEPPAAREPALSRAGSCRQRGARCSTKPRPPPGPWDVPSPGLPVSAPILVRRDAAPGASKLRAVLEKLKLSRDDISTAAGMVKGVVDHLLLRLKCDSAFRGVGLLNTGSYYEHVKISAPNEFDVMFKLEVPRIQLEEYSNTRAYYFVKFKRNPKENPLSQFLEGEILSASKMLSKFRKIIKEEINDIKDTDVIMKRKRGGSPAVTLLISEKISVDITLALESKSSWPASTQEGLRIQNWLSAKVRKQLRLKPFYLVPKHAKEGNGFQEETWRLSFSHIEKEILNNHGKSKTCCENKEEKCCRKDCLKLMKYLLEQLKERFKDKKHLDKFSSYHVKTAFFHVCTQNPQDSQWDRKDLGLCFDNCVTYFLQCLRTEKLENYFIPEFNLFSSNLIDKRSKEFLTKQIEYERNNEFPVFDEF

Legend:
[1] = target: cGAS (Homo sapiens (Human), UniProt Q8N884); assay: Human cGAS enzyme assay (hcGAS IC50, in vitro), cGAMP formation by RapidFire MS; settings: read-out: hcGAS IC50; biochemical (in vitro) cGAS inhibition;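 note: enzyme activated by 45 bp dsDNA with GTP and ATP (30 µM each), 60 min compound pre-incubation then 90 min reaction, cGAMP relative to cyclic-di-GMP internal standard, 8-point dilutions up to 10 µM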
[2] = test system: cellular cGAS activity in baculovirus-stimulated THP1-Dual cells (IRF dependent Lucia luciferase reporter); assay: Human cGAS cell assay: inhibition of IFN induction in virus-stimulated THP1 cells (THP1(vir) IC50); type: cell-based; settings: read-out: THP1(vir) IC50
Excerpt: (§1) 6.2 Method: Human cGAS Cell Assay and cGAMP Stimulated Counter Cell Assay (THP1(vir) IC50 and THP1(cGAMP) IC50)
(§2) THP1-Dual™ cells (InvivoGen #thpd-nfis) expressing IRF dependent Lucia luciferase reporter were used as basis for both assays. For the detection of cellular cGAS activity cells were stimulated by a baculovirus (pFastbac-1, Invitrogen, no coding insert) infection that delivers the cGAS enzyme stimulating double-stranded DNA (measurement of THP1(vir) IC50).
(§3) For the counter assay, cells were stimulated by cGAMP (SigmaAldrich #SML1232) to activate the identical pathway independent and directly downstream of cGAS (measurement of THP1(cGAMP) IC50). Pathway activity was monitored by measuring the Lucia luciferase activity induced by either DNA stimulated cGAS enzyme activity (measurement of THP1(vir) IC50) or by cGAMP directly (measurement of THP1(cGAMP) IC50, counter assay). […]
(§4) Following that, 15 μl of QuantiLuc detection reagent (InvivoGen #rep-qlcg5) were added to each well using a MultiDrop Combi. Measurement was done immediately after the addition using an EnVision reader (US-luminescence read-mode).
(§5) For data evaluation and calculation, the measurement of the low control was set as 0% control and the measurement of the high control was set as 100% control. The IC50 values were calculated using the standard 4 parameter logistic regression formula. […]

[3] = test system: cGAMP-stimulated THP1-Dual cells (pathway directly downstream of cGAS); assay: cGAMP stimulated counter cell assay: inhibition of IFN induction in cGAMP-stimulated THP1 cells (THP1(cGAMP) IC50); type: cell-based, human
Excerpt: as §1, §2, §3, §4, §5

[4] = test system: cellular cGAS activity in dsDNA-stimulated human whole blood; assay: Human whole blood assay (hWB IC50): IFNα2α production after dsDNA transfection; settings: read-out: hWB IC50; inhibition of IFN induction in dsDNA-stimulated human whole blood

In the case of CC1(C#N)CCCN(c2cc(Cl)cnc2O[C@H]2C[C@@H](C(=O)O)N(c3nc(C(F)(F)F)nc4c3oc3ccccc34)C2)C1 (some centres unmarked), the pIC50 [1] was 7.85, the pIC50 [2] was 6.11 and the pIC50 ([3]; read-out: THP1(cGAMP) IC50, inhibition of IFN induction in cGAMP-stimulated THP1 cells) was 4.90. The “Ratio THP1(cGAMP) IC50 / THP1(vir) IC50” value ([3]; selectivity for cGAS inhibition) was 16 and the pIC50 [4] was 5.02.

pIC50: −log10 of the molar value. The structures given here were assigned with low confidence; some may be wrong.
